Test results taken from patent US20210355180A1.
No constants are given. Whether binding was seen depends on the method and setting. Some binding calls cover weakened binding; strength is not graded here.

B1: (ZAβ3A12)2 displayed on S. carnosus (designed binder)
chain: AGGEIVYLPNLNPDQLCAFIHSLHDDPSQSANLLAEAKKLNDAQAPKSSSGSSSGRASAGGEIVYLPNLNPDQLCAFIHSLHDDPSQSANLLAEAKKLNDAQAPKKLLDALAKAKADALKEFNKYGVSDYYKNLINNAKTVEGVKDLQAQVVESAKKARISEATDGLSDFLKSQTPAEDTVKSIELAEAKVLANRELDKYGVSDYHKNLINNAKTVEGVKDLQAQVVESAKKARISEATDGLSDFLKSQTPAEDTVKSIELAEAKVLANRELDKYGVSDYYKNLINNAKTVEGVKALIDEILAALP
B2: ABPP078 displayed on S. carnosus (designed binder)
chain: AGRERVYLPNLNAHQLCAFINSLEDDPSQSANLLAEAKKLNDAQAPASSSSGSSSSGRASAGGEIVYLPNLNAHQLCAFIQSLEDDPSQSANLLAEAKKLNDAQAPKKLLDALAKAKADALKEFNKYGVSDYYKNLINNAKTVEGVKDLQAQVVESAKKARISEATDGLSDFLKSQTPAEDTVKSIELAEAKVLANRELDKYGVSDYHKNLINNAKTVEGVKDLQAQVVESAKKARISEATDGLSDFLKSQTPAEDTVKSIELAEAKVLANRELDKYGVSDYYKNLINNAKTVEGVKALIDEILAALP
B3: ABPP096 displayed on S. carnosus (designed binder)
chain: AGGERVYFPNLNAHQLCAFIRSLEDDPSQQANLLAEAKKLNDAQAPASSSSGSSSSGRASAGRERVYLPNLNADQLCAFIQSLEDDPSQRANLLAEAKKLNDAQAPKKLLDALAKAKADALKEFNKYGVSDYYKNLINNAKTVEGVKDLQAQVVESAKKARISEATDGLSDFLKSQTPAEDTVKSIELAEAKVLANRELDKYGVSDYHKNLINNAKTVEGVKDLQAQVVESAKKARISEATDGLSDFLKSQTPAEDTVKSIELAEAKVLANRELDKYGVSDYYKNLINNAKTVEGVKALIDEILAALP

Experiments:
[1] = biological target: C-terminally biotinylated Aβ1-40 peptide (human); test: flow cytometry, S. carnosus display, 1 nM biotinylated Aβ1-40
[2] = biological target: C-terminally biotinylated Aβ1-40 peptide (human); test: flow cytometry, on-cell off-rate ranking with unlabeled Aβ1-40

| Binder | binding [1] | binding [2] |
| --- | --- | --- |
| B1 | binds | binds |
| B2 | binds | binds |
| B3 | binds | binds |
